Experimental data taken from PubChem BioAssay.
For part of these data: What follows is the remainder of the data, with few or none of the hits. Only a part is listed here, and it is no random draw. Calls of active or inactive are those of the source. Rule as the data show it, unless noted: active = activity change below about -50%; inactive = the rest.

Columns and labels:
[1] = viability loss in A549 cells – cell-based, plate reader, single point, cherry-pick, cytotoxicity control (AID 743188; call rule not given here); conditions: at 25 µM
[2] = viability loss in HepG2 cells – cell-based, plate reader, single point, cherry-pick, cytotoxicity control (AID 743189); conditions: at 25 µM, hits give low values
[3] = viability loss in HEK293 cells – cell-based, plate reader, single point, cherry-pick, cytotoxicity control (AID 743190; in the data active = activity change below about -38%, passing the limit was not always enough); conditions: at 25 µM

O=c1ccc2ccc(OCc3ccccc3)cc2o1
inactive: cell viability change % (negative = cytotoxic) [1] -5.75% | activity change, negative = inhibition [2] -19.5% | activity change, negative = inhibition [3] -7%
